Experimental data: PubChem BioAssay AID1671195 (Yale University, 2021)
This is one part, drawn at random, of about 22,000 reagents. About 1,510 of them (6.9%) count as active. 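Active includes knockdowns raising or lowering LDL uptake; positive z-scores mean more uptake, negative mean less.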

Assay: 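Knockdowns that increase or decrease uptake of fluorescent LDL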 (primary screen)
System: human Huh7 hepatoma cells
Knock-down reagent: siRNA pool against human genes, 18 nM
Duration: about 2 to 2.5 days of knockdown, then 8 h LDL uptake
Treatment: DiI-labelled LDL at 30 µg/ml for 8 h, in lipoprotein-deficient serum medium
Read-out: 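Per-cell DiI-LDL intensity by automated imaging; well means scaled to the plate median and given as a robust z-score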
Scale: robust z-score: higher = more LDL uptake after knockdown
Hit rule: 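Active when two or more replicates show a robust z-score above 2 or below -2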

GDPD3 → robust z-score, replicate 1 = 0.307; robust z-score, replicate 2 = -1.16; robust z-score, replicate 3 = -0.364; Outcome = inactive
PKNOX1 → robust z-score, replicate 1 = 0.883; robust z-score, replicate 2 = 0.833; robust z-score, replicate 3 = 1.56; Outcome = inactive
UBXN7 → robust z-score, replicate 1 = -1.4; robust z-score, replicate 2 = -0.552; robust z-score, replicate 3 = -0.0414; Outcome = inactive
GCSAML → robust z-score, replicate 1 = 0.0381; robust z-score, replicate 2 = -0.0247; robust z-score, replicate 3 = 0.695; Outcome = inactive
DNAJB13 → robust z-score, replicate 1 = 0.525; robust z-score, replicate 2 = 0.386; robust z-score, replicate 3 = 0.638; Outcome = inactive
LOC440765 (retired record) → robust z-score, replicate 1 = 2.92; robust z-score, replicate 2 = 2.58; robust z-score, replicate 3 = 2.66; Outcome = active
OR10P1 → robust z-score, replicate 1 = -1.13; robust z-score, replicate 2 = -0.519; robust z-score, replicate 3 = -0.858; Outcome = inactive
XRCC6 → robust z-score, replicate 1 = 0.0206; robust z-score, replicate 2 = 0.113; robust z-score, replicate 3 = 0.242; Outcome = inactive
ANKRD53 → robust z-score, replicate 1 = -0.228; robust z-score, replicate 2 = 0.338; robust z-score, replicate 3 = 0.162; Outcome = inactive
MEIS1 → robust z-score, replicate 1 = 1.07; robust z-score, replicate 2 = 0.236; robust z-score, replicate 3 = 1.31; Outcome = inactive
LOC391444 (retired record) → robust z-score, replicate 1 = 0.517; robust z-score, replicate 2 = 0.669; robust z-score, replicate 3 = 0.531; Outcome = inactive
LOC440842 (retired record) → robust z-score, replicate 1 = 0.512; robust z-score, replicate 2 = 0.166; robust z-score, replicate 3 = 0.0563; Outcome = inactive

2 of these entries, reformatted.
| gene | robust z-score, replicate 1 | robust z-score, replicate 2 | robust z-score, replicate 3 | Outcome |
| --- | --- | --- | --- | --- |
| LOC391444 (retired record) | 0.517 | 0.669 | 0.531 | inactive |
| LOC440842 (retired record) | 0.512 | 0.166 | 0.0563 | inactive |
